From patent US4975450A, “Antidiarrheal” (Slovenska Akademia Vied, priority 1987, dated 1990)

Test: retention of stomach content
Format: in vivo
Settings: active substance 10-20 mg/kg; atropin dose not stated

## CN1C2CCC1CC(OC(=O)C(CO)c1ccccc1)C2 (stereo not shown) [atropin, reference compound]
  retention of stomach content: increases
